In PubChem BioAssay AID652054 (National Center for Advancing Translational Sciences (NCATS), 2013):
Screen size: about 360,000 compounds; about 9,100 (2.5%) were called active. The inconclusive results got no clear call from the source; some entries with a clear call stand among them for comparison. No stated cut-off is given here; in the data, active means max response below about -50%; inconclusive means no clear call, values can overlap the other calls; inactive means above that.

The chains behind the UniProt entries cited, without tags or fusion partners.
UniProt P35462, whole entry, looked up: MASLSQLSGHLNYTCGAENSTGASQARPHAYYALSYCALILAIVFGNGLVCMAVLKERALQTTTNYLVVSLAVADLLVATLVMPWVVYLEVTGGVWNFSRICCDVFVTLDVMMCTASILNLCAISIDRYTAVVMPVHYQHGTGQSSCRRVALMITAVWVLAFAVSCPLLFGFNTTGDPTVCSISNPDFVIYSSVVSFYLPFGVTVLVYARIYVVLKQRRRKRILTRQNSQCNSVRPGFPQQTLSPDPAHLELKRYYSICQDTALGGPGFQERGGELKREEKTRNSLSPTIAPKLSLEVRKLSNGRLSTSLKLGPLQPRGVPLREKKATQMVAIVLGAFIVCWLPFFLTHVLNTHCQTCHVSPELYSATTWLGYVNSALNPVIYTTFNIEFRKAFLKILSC

Target: D(3) dopamine receptor (Homo sapiens) (UniProt P35462)
Assay: qHTS of D3 Dopamine Receptor Antagonist: qHTS
Conditions: D3R cells, DiscoveRx beta-arrestin luminescence, antagonist mode; stronger effect = lower value
Method in brief: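 Cells expressing the human receptor were seeded at 1500 cells/well, incubated overnight at 37 degrees C in 5% CO2, then exposed to library compounds with dopamine controls for 90 minutes at 37 degrees C before luminescent detection.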
On the % scale 0 is the no-effect control and ±100 the full control effect.

SMILES | max response, negative = inhibition
CCn1c(SCC(=O)N2CCN(c3ccc(Cl)cc3)CC2)nc2ccccc2c1=O | inactive: 34.7%
Cc1ccc(N(CC(=O)NC2CCCCC2)C(=O)CCC(=O)Nc2nccs2)cc1 | inactive: 13.3%
Cc1cc(C(=O)Nc2ccc(C)c(S(=O)(=O)N3CCOCC3)c2)c(C)o1 | inconclusive: -39.2%
Cc1nnc(SCCn2c(N(C)Cc3ccccc3)nc3c2c(=O)n(C)c(=O)n3C)s1 | inconclusive: -32.7%
COc1ccc(O)c(C(=O)/C=C/c2cc3ccccc3o2)c1 | active: -62%
O=c1oc2ccccc2c(Nc2ccc(F)cc2)c1[N+](=O)[O-] | inactive: -5.85%
CC(C)(C)NC(=O)CN(Cc1ccccc1)S(=O)(=O)c1ccccc1 | inactive: -22.6%
COC(=O)C(C)Sc1nc2c(c(=O)[nH]c(=O)n2C)n1CCC(C)C (stereo unspecified) | inconclusive: -31.5%
CCCCCCN1CCN(C2CN(C3CCCCC3)S(=O)(=O)C2)CC1 (stereo unspecified) | active: -117%
Cc1cc(-n2nnc3ccccc32)nc2ccccc12 | inactive: -15.9%
COC(C/C=C\[C@H](O)COCc1ccccc1)OC | inactive: -21.4%
CCn1cc(CN2CCC(n3nccc3NC(=O)CCCc3ccccc3)CC2)cn1 | inconclusive: -32.1%
COc1ccc(/C=N/n2c(-c3n[nH]c4c3CCC4)n[nH]c2=S)cc1 | inconclusive: -39.7%
CC(Oc1cccc(Cl)c1)C(=O)Nc1ccccc1N1CCCC1 (stereo unspecified) | inactive: -1.5%
CCOc1ccccc1N1CCN(CC(O)COCc2cccs2)CC1 (stereo unspecified) | active: -84.5%
Cc1csc(NC(=O)CSc2nc(C(C)C)nc3c2c(=O)n(C)c(=O)n3C)n1 | inactive: 15.6%
CN(C)CCCN1c2ccccc2CCc2ccc(Cl)cc21 | active: -104%
CCN(c1ccccc1)S(=O)(=O)c1ccc(Cl)c(NC(=O)CNCc2ccccc2OC)c1 | active: -65.7%
CCOc1ccc(N(CC(=O)Nc2cccnc2)S(=O)(=O)c2ccc(C)cc2)cc1 | inconclusive: -47%
O=C(c1ccccc1)c1ccc2nc(-c3ccc(NC(=O)c4ccccc4F)cc3)[nH]c2c1 | inconclusive: -32%
COc1ccc2nc(NN=C(C)c3ccccn3)cc(C)c2c1 | inconclusive: -30.4%
Cc1ccc(CN2CCSc3ccc(C(=O)NC4CCCC4)cc32)cc1 | inconclusive: -37%

Sorted by formula weight (largest number first): part of the list above
SMILES | max response, negative = inhibition
Cc1ccc(N(CC(=O)NC2CCCCC2)C(=O)CCC(=O)Nc2nccs2)cc1 | inactive: 13.3%
Cc1csc(NC(=O)CSc2nc(C(C)C)nc3c2c(=O)n(C)c(=O)n3C)n1 | inactive: 15.6%
CCOc1ccccc1N1CCN(CC(O)COCc2cccs2)CC1 (stereo unspecified) | active: -84.5%
Cc1ccc(CN2CCSc3ccc(C(=O)NC4CCCC4)cc32)cc1 | inconclusive: -37%
CC(C)(C)NC(=O)CN(Cc1ccccc1)S(=O)(=O)c1ccccc1 | inactive: -22.6%

(continued)

SMILES | max response, negative = inhibition
CCOC(=O)N1CCN(S(=O)(=O)c2cc(OCC(=O)NC3CCCCC3)c(C)cc2Cl)CC1 | inconclusive: -30.5%
CN(C)CCCN(C(=O)c1cc(Cl)sc1Cl)c1nc2cc3c(cc2s1)OCO3 | inconclusive: -46.3%
Fc1cccc(CSc2nc3ccncc3[nH]2)c1 | inactive: -17.6%
CCCCNc1nc2ccccc2nc1NS(=O)(=O)c1cccs1 | inconclusive: -43.8%
COc1cc(OC)nc(Nc2nc(C(N)Cc3ccc(C(F)(F)F)cc3)cs2)n1 (stereo unspecified) | inactive: 0%
CN(C)S(=O)(=O)c1ccc(C(=O)OCC(=O)NCc2ccccc2)cc1 | inconclusive: -49%
Cc1nc(NCCN2CCOCC2)c2oc3ccccc3c2n1 | inactive: -3.27%
COc1cccc(CN(C)C(=O)CC[C@H]2O[C@@H](n3cnc4c(NC(=O)c5ccccc5)ncnc43)[C@H](O)[C@@H]2O)c1 | inconclusive: -49%
COc1ccc(C2CCCN2CC(O)COc2ccccc2C(C)C)cc1 (stereo unspecified) | inconclusive: -41%
Cc1ccccc1CN1C(=O)C(O)(CC(=O)c2ccncc2)c2ccccc21 (stereo unspecified) | inconclusive: -40.7%
O=c1c2ccccc2[nH]c(=S)n1CCN1CCc2ccccc2C1 | active: -89.7%
O=[N+]([O-])c1cnc(Sc2ccncn2)c([N+](=O)[O-])c1 | inactive: 0%
O=C(c1ccc(Cl)cc1)N1CCCC(C(=O)N2CCN(c3ccccc3)CC2)C1 (stereo unspecified) | inactive: 10.5%
NC(=O)CC(NC(=O)Cc1cccc2ccccc12)c1ccc(N2CCC(Br)CC2)c([N+](=O)[O-])c1 (stereo unspecified) | inconclusive: -37.5%
COc1ccc(NC2=NCC(Cc3ccc(Br)cc3)S2)cc1 (stereo unspecified) | inconclusive: -42.9%
O=C1CCCN1CC(CN1CCOCC1)Sc1nc2ccccc2c(=O)n1-c1ccccc1 (stereo unspecified) | inconclusive: -32.9%
COc1ccc(N2CCN(CCCNC(=O)CC3Oc4ccc(C)cc4NC3=O)CC2)cc1 (stereo unspecified) | inconclusive: -40.7%
CCN(CC)C(=O)c1sc(NC(=O)Cc2ccccc2)c(C#N)c1C | inconclusive: -40.3%
O=C(O)c1ccccc1Nc1ccc([N+](=O)[O-])c2nonc12 | inconclusive: -31.4%
CCN1CCN(P2(=O)C=C(c3ccccc3)OC(c3ccccc3)=C2)CC1 | active: -81.3%
O=C1CC(=C(c2ccccc2)c2ccccc2)C(=O)N1CCCN1CCN(c2cccc(Cl)c2)CC1 | inconclusive: -39.8%
COc1ccc(C(=O)N=S2CCN(C(=O)c3ccc(Cl)cc3)CC2)cc1 | inactive: 6.81%

SMILES | max response, negative = inhibition
O=C(NCCNc1ccc([N+](=O)[O-])cc1)c1cccc2c(Br)cccc12 | active: -58.2%
Cc1ccc2nc(COC(=O)c3cnccn3)cc(=O)n2c1 | inactive: -17.6%
CC(NCC1(N2CCOCC2)CCCCC1)C(=O)N1CCc2ccccc21 (stereo unspecified) | inconclusive: -36.9%
COC(=O)[C@]12CCCCC=C1N(CCC1=CCCCC1)C(=O)[C@H](CC(=O)NCc1ccc(C)o1)C2 | inactive: -23.7%
Cn1nnnc1SCC(=O)N1N=C(c2cccs2)CC1c1cccs1 (stereo unspecified) | inconclusive: -31.3%
COc1ccc(N2CCN(CCCNC(=O)C(=O)c3c(C)[nH]c4ccccc34)CC2)cc1 | inconclusive: -30.1%
C[C@H](CO)N1C[C@H](C)[C@@H](CN(C)C(=O)c2cnccn2)Oc2cc(C#CCC3CCCC3)ccc2S1(=O)=O | active: -61.5%
Nc1ccc2oc3ccc(N)cc3c(=O)c2c1 | inconclusive: -31.2%
CC(C)NC(=O)c1onc(CSc2ccncc2)c1C(=O)NC(C)C | inconclusive: -40.5%
Cn1c2c(c(=O)n(C)c1=O)C(CC(=O)Nc1ccc(F)cc1)C(=O)N2 (stereo unspecified) | inactive: 9.94%
CCOC(=O)C[C@H]1c2ccc(C(F)(F)F)cc2S(=O)(=O)N1c1cccc(OC)c1 | inconclusive: -37.1%
COc1cc(/C=C2\C(=N)N3N=C(S(C)(=O)=O)SC3=NC2=O)cc(OC)c1OCCOc1ccccc1C | inconclusive: -33.3%
Fc1cccc(CCN2CCNC[C@@H]2c2ccccc2)c1 | inactive: -14.7%
O=C1c2oc3ccccc3c(=O)c2C(c2cccc(F)c2)N1CCCO (stereo unspecified) | inconclusive: -46.5%
CNC[C@H]1Oc2c(NS(=O)(=O)c3cccs3)cccc2C(=O)N([C@H](C)CO)C[C@@H]1C | inactive: -19.2%
Cc1cccc(NC(=S)N/N=C/c2ccc(Cl)c([N+](=O)[O-])c2)c1 | inconclusive: -33.2%
O=C(NC1CC1)c1ccc2sc([C@H]3C[C@H](O)[C@@H](CO)O3)nc2c1 | inactive: 0.344%
CC(C)[C@H](NC(=O)c1ccc(Cl)c([N+](=O)[O-])c1)C(=O)NCc1ccc(F)cc1 | inconclusive: -34.8%
COCCCNCCC(CCC(C)C)c1ccc2c(c1)OCO2 (stereo unspecified) | inconclusive: -48.6%
c1cncc(-c2nc3ccccc3o2)c1 | inconclusive: -44.8%
CCN(CC)CCOC(=O)C1(c2ccc([N+](=O)[O-])cc2)CCCC1 | inconclusive: -36.2%
CN(C)CCCNC(=O)c1ccc(Cl)c(S(=O)(=O)N(C)c2ccccc2)c1 | inconclusive: -41.1%

SMILES | max response, negative = inhibition
CN(C(=O)c1ccno1)c1nnc(-c2cnccn2)s1 | inconclusive: -47.6%
CCOC(=O)c1c(C)c(C(=O)N(C)C2CCCCC2)c(C)n1C | inconclusive: -35.3%
Cc1cccc(-c2oc3ccc(-c4ccc5c(c4)OCO5)cc3c2C(=O)OCc2ccc(O)cc2)c1 | inconclusive: -35.8%
CC1CCCC(NC(=O)c2n[nH]c(=O)c3ccccc23)C1C (stereo unspecified) | inconclusive: -31.4%
Clc1ccccc1N1CCN(Cc2ccco2)CC1 | active: -56.3%
CC(=O)c1cccc(OCC(O)CNCC2CCCCC2)c1 (stereo unspecified) | inconclusive: -39%
CN1CCN(C(=O)c2ccc(-c3ccc(F)c(F)c3)c3ccoc23)CC1 | active: -58.7%
O=C(CCN1CCc2ccccc21)c1ccc2c(c1)OCCO2 | inconclusive: -38.1%
COc1ccc(/C=C/C(=O)OCC(=O)NCCNC(=O)COC(=O)/C=C/c2ccc(OC)cc2)cc1 | inconclusive: -31.3%
COc1ccc(-c2c(C)nn(-c3ccccc3)c2N)cc1 | inactive: 16.8%
Cn1nnnc1SCC(=O)NC(C)(C)C | inconclusive: -41.4%
COc1ccc(N2C(=O)C3C(c4ccc(OC)cc4O)NC(Cc4ccccc4)(C(=O)O)C3C2=O)cc1 (stereo unspecified) | inconclusive: -34.5%
CC(=O)c1ccc(N2CCN(C(=O)c3ccc(S(=O)(=O)NCc4ccco4)cc3)CC2)cc1 | inactive: -4.73%
O=C(O)CCCNS(=O)(=O)c1cccs1 | inactive: -15.6%
Cn1c(=O)n(C)c2cc([N+](=O)[O-])c(N3CCN(C(=O)c4cccc(F)c4)CC3)cc21 | inconclusive: -41.2%
COc1cc(CNCc2cccc3ccccc23)cc(OC)c1 | inconclusive: -30.5%
O=C(NCCc1ccccn1)c1ccc(OC2CCN(CCc3ccccc3)CC2)cc1 | active: -61.6%
COc1cccc(OCC(O)CN2CCC(CN3C(=O)c4cccc5cccc(c45)C3=O)CC2)c1 (stereo unspecified) | active: -52%
COc1cc(NC(=O)CSc2nnc(-c3ccncc3)o2)cc(OC)c1OC | inactive: -1.96%
CC(C)C[C@H]1CNC(=S)N1C[C@H]1CCCN1C[C@H](Cc1ccc(O)cc1)N1C[C@H](Cc2ccc(O)cc2)N(CC2CCCCC2)C1=S | inactive: 4.99%
